# Results reported in article PMC10315710, “Diacylglycerol kinase ζ interacts with sphingomyelin synthase 1 and sphingomyelin synthase‐related protein via different regions” (FEBS Open Bio, 2023).
# Results are given in words; binding and its absence hold for the method and conditions named. Binding seen in cells or lysates may run through a third protein. Tags and fused reporters may be left off the sequences shown.
# Tests used:
# Experiment in all cases: co-IP; HEK293 cell lysates expressing V5-tagged SMS1, SMS2 or SMSr and 3×FLAG-tagged DGK isozymes; immunoprecipitation with anti-V5 antibody and Protein A/G PLUS-agarose; western blot with anti-FLAG and anti-V5
# [1] = target: T1, SMSr‐V5 (C-terminal V5-tagged human sphingomyelin synthase-related protein) (human) (UniProt Q96LT4)
# T1 sequence: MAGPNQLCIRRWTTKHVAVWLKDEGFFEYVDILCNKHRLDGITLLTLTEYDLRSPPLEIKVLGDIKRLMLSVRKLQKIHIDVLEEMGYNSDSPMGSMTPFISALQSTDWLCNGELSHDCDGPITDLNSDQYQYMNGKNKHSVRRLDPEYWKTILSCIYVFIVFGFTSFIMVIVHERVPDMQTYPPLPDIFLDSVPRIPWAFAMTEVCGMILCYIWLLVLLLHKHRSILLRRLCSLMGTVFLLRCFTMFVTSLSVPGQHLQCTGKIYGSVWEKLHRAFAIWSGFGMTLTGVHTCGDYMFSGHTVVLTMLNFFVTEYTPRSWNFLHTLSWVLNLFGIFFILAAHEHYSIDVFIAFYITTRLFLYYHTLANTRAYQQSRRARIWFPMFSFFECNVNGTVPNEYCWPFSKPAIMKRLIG
# [2] = target: T2, SMS1‐V5 (C-terminal V5-tagged human sphingomyelin synthase 1) (human) (UniProt Q86VZ5)
# T2 sequence: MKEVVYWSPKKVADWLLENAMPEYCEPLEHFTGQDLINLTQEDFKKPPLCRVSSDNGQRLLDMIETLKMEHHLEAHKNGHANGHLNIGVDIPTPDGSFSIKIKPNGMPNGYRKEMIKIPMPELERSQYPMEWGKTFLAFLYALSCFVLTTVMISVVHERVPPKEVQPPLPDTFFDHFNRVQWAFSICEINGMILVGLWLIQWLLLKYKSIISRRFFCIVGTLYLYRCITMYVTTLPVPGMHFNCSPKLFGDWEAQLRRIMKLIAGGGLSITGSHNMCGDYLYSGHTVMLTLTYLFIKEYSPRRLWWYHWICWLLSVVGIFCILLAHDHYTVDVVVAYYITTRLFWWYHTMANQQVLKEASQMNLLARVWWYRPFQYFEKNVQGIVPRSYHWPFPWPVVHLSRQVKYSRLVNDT
# [3] = target: T3, SMS2‐V5 (C-terminal V5-tagged human sphingomyelin synthase 2) (human) (UniProt Q8NHU3)
# T3 sequence: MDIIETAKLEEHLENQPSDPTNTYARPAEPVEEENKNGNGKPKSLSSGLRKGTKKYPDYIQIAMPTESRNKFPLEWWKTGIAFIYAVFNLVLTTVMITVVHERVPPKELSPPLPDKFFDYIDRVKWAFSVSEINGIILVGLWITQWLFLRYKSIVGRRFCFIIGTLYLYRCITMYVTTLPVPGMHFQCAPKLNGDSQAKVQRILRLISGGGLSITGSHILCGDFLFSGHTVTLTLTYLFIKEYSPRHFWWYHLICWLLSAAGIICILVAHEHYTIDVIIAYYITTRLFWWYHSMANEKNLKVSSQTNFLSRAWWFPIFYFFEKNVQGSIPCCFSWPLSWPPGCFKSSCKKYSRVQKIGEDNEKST
Substance,binding [1],binding [2],binding [3]
3×FLAG‐DGKη1 (enzyme),no binding,no binding,no binding
3×FLAG‐DGKε (enzyme),no binding,no binding,–
3×FLAG‐DGKι (enzyme),no binding,no binding,no binding
3×FLAG‐DGKα (enzyme),no binding,no binding,no binding
3×FLAG‐DGKγ (enzyme),no binding,no binding,no binding
3×FLAG‐DGKθ (enzyme),no binding,no binding,no binding
